This is an account of results in US20200164071A1.

Sequences of proteins named here, by UniProt entry; tags and fusion partners are left off. A change or cut given only in a name is not applied to a line headed by its entry.
UniProt Q15116: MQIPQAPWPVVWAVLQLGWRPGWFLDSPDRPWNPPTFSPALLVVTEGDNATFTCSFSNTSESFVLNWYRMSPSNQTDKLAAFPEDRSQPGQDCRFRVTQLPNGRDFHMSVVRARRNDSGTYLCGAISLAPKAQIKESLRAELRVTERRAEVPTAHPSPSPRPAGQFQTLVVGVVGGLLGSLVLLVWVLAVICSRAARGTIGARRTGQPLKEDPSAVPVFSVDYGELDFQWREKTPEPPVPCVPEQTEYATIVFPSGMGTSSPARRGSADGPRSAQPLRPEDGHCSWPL
UniProt Q495A1: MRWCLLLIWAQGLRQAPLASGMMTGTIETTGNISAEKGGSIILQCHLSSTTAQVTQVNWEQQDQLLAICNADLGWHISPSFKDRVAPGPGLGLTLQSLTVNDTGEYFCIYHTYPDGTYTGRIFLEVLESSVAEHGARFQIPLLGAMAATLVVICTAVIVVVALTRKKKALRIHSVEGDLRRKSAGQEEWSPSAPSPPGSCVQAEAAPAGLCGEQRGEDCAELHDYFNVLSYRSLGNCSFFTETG

These are yes or no findings as the source states them, for the method shown. Some binding calls cover weakened binding; strength is not graded here.

Assay [1] addresses His tagged human PD-1 protein (human) (UniProt Q15116). Description: BLI (Octet RED96), antibody on anti-human IgG capture sensors, PD-1-His as analyte. Background: In BLI a coated tip is dipped into the sample, and binding shifts an interference pattern.
For assay [2] the target is unchanged. Description: BLI (Octet RED96).
Assay [3] deals with human PD-1 on CHO-K1 cells (human) (UniProt Q15116). Put plainly: flow cytometry blocking assay: FITC human PD-L1-Fc on human PD-1 CHO-K1 cells (Examples 11 and 15); title: PD-1 Blocking Activity Screening.
Assay [4] deals with human TIGIT on CHO-K1 cells (human) (UniProt Q495A1). Put plainly: flow cytometry competition assay: PVR (CD155) signal on human TIGIT CHO-K1 cells against titrated antibody (Example 3 names human PVR-human Fc, m15, with PE anti-human Fc). A general note: In flow cytometry, cells or beads pass a laser one at a time.
For assay [5] the target is unchanged. Put plainly: flow cytometry blocking assay: biotinylated hPVR-mIg on human TIGIT CHO-K1 cells, PE streptavidin (Examples 4 and 6).
Assay [6] has as its target cyno TIGIT on CHO-K1 cells (cyno). Put plainly: flow cytometry, CHO-K1 cells expressing cyno TIGIT (binding assay of Example 5).
Assay [7] shares this target. Description: flow cytometry blocking assay of Example 4: biotinylated hPVR-mIg on cyno TIGIT CHO-K1 cells.
The target of assay [8] is human TIGIT on CHO-K1 cells (human) (UniProt Q495A1). Put plainly: flow cytometry blocking assay of Example 4: biotinylated hPVR-mIg on human TIGIT CHO-K1 cells.
For assay [9] the target is unchanged. Description: flow cytometry, CHO-K1 cells expressing human TIGIT (binding assay of Example 5).

B1: PD-02 mab (antibody, V domains shown)
VH: QVQLVQSGAEVKKPGASVKVSCKASDYTFTNSYLYWLRQAPGQGLEWMGGINPSNGGTNFNEKFKTRTTSTRDTSISTAYMELSRLRSDDTVVYYCTRRDYNYDGGFDSWGQGTLVTVSS
VL: DIQMTQSPSSLSASVGDRVTFTCRASSTLYSNYLHWYQQKPGKAPKLLIYRASFLASGVPSRFSGSGSGTDFTLTISSLQPEDFATYYCQQGSSIPLTFGGGTKVEIK
With B1, the binding result in assay [1] and in [2] was “binds” each time.

B2: PD-01 mab (antibody, V domains shown)
VH: EVQLVESGGGLVQPGGSLRLSCAASGFTFSNFLMSWVRQAPGKGLEWVSTISGGGRDTYYVDSVKGRFTISRDNSKNTLYLQMNSLRAEDTAVYYCAKRTTYSMDYWGQGTSVTVSS
VL: DIQMTQSPSSVSASVGDRVTITCLASQTIGTWLAWYQQKPGKAPKLLIYAATSLADGVPSRFSGSGSGTDFTLTISSLQPEDFATYYCQQFYSIPWTFGGGTKLEIK
With B2, the binding entry in assay [3], in assay [1] and in assay [2] was “binds” in each case.

B3: T-09 (antibody, V domains shown)
VH: QVTLKESGPTLVKPTQTLTLTCTFSGFSLSTFAMGVGWIRQPPGKALEWLAHIWWDDDKYYNPALKSRLTITKDTSKNQVVLTMTNMDPVDTATYYCARMDYSYFAWFAYWGQGTLVTVSS
VL: QAVVTQEPSLTVSPGGTVTLTCRSSTGAVTTSNYANWVQQKPGQLFRGLIGGTNNRAPWVPARFSGSLIGDKAALTLSGVQPEDEAEYFCALWYSNHWVFGGGTKLTVL
Turning to B3, the binding entry in assay [4] is “binds”.

B4: T-04 (antibody, V domains shown)
VH: EVQLVQSGAEVKKPGATVKISCKVSGYTFTDHTIHWVQQAPGKGLEWMGYIYPRDGSSKYNVKFKGRVTITADTSTDTAYMELSSLRSEDTAVYYCATGMLRWFAYWGQGTLVTVSS
VL: DIQMTQSPSSLSASVGDRVTITCKASQDVFTAVAWYQQKPGKAPKLLIYSASYRYTGVPSRFSGSGSGTDFTFTISSLQPEDIATYYCQQHYSIPLTFGAGTKLEIK
With B4, the binding result in assay [4] and in assay [5] was “binds” each time.

B5: T-08 (antibody, V domains shown)
VH: QVQLVQSGSELKKPGASVKVSCKASGYTFTNYGMNWVRQAPGQGLEWMGWINTYTGEPTYADDFKGRFVFSLDTSVSTAYLQISSLKAEDTAVYYCARAPPYGYDVRFAYWGQGTLVTVSS
VL: DVVMTQSPLSLPVTLGQPASISCRSSQSIVHSNGNTYLEWFQQRPGQSPRVLIYKVSDRFSGVPDRFSGSGSGTDFTLKISRVEAEDVGVYYCFQGSHVPWTFGRGTKLEIK
For B5, the binding entry in assay [4], in [6], in assay [7], in [8] and in assay [9] was “binds” in each case.
